Data published in publication PMC4494937.
The exact form of at least one protein or probe is not confirmed. A negative result means that nothing was seen under these conditions. Where a protein sequence is shown, tags need not be part of it.

Molecular target: T1, RNPC1a (UniProt Q9H0Z9)
T1 sequence (looked up, limits assumed): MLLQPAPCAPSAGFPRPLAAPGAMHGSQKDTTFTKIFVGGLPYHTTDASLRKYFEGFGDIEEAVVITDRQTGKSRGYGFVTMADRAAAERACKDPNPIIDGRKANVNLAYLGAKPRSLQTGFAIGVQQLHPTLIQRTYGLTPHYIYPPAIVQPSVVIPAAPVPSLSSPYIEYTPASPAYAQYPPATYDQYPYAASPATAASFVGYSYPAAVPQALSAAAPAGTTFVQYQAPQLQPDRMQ
Test: EMSA
Conditions: 0.6 and 1.2 ug protein, yeast tRNA; 10 mM HEPES-KOH pH 7.5, 90 mM potassium acetate, 1.5 mM magnesium, 2.5 mM DTT, 40 U RNase inhibitor, 2.5 ug yeast tRNA, 20 ul, 30 C 30 min; 4% agarose gel; recombinant protein; protein details: His; label: none (Gel Red stain); probe letters rebuilt from the primers and the genome

Sequence	binding result
GGGAGAUGUGUUUCUAUUCAUGUUAAGAUACUACUACAUUUGAAGUGGGCAGAGAACAUCAGAUGAUUGAAAUGUUCGCCCAGGGGUCUCCAGCAACUUUGGAAAUCUCUUUGUAUUUUUACUUGAAGUGCCACUAAUGGACAGCAGAUAUUUUCUGGCUGAUGUUGGUAUUGGGUGUAGGAACAUGAUUUAAAAAAAAACUCUUGCCUCUGCUUUCCCCCACUCUGAGGCAAGUUAAAAUGUAAAAGAUGUGAUUUAUCUGGGGGGCUCAGGUAUGGUGGGGAAGUGGAUUCAGGAAUCUGGGGAAUGGCAAAUAUAUUAAGAAGAGUAUUGAAAGUAUUUGGAGGAAAAUGGUUAAUUCUGGGUGUGCACCAGGGUUCAGUAGAGUCCACUUCUGCCCUGGAGACCACAAAUCAACUAGCUCCAUUUACAGCCAUUUCUAAAAUGGCAGCUUCAGUUCUAGAGAAGAAAGAACAACAUCAGCAGUAAAGUCCAUGGAAUAGCUAGUGGUCUGUGUUUCUUUUCGCCAUUGCCUAGCUUGCCGUAAUGAUUCUAUAAUGCCAUCAUGCAGCAAUUAUGAGAGGCUAGGUCAUCCAAAGAGAAGACCCUAUCAAUGUAGGUUGCAAAAUCUAACCCCUAAGGAAGUGCAGUCUUUGAUUUGAUUUCCCUAGUAACCUUGCAGAUAUGUUUAACCAAGCCAUAGCCCAUGCCUUUUGAGGGCUGAACAAAUAAGGGACUUACUGAUAAUUUACUUUUGAUCACAUUAAGGUGUUCUCACCUUGAAAUCUUAUACACUGAAAUGGCCAUUGAUUUAGGCCACUGGCUUAGAGUACUCCUUCCCCUGCAUGACACUGAUUACAAAUACUUUCCUAUUCAUACUUUCCAAUUAUGAGAUGGACUGU [ERα 3'UTR probe D]	binds
GGGAGUGGGCACUGUACUUGGAUCUUCCCGGCGUGUGUGUGCCUUACACAGGGGUGAACUGUUCACUGUGGUGAUGCAUGAUGAGGGUAAAUGGUAGUUGAAAGGAGCAGGGGCCCUGGUGUUGCAUUUAGCCCUGGGGCAUGGAGCUGAACAGUACUUGUGCAGGAUUGUUGUGGCUACUAGAGAACAAGAGGGAAAGUAGGGCAGAAACUGGAUACAGUUCUGAGGCACAGCCAGACUUGCUCAGGGUGGCCCUGCCACAGGCUGCAGCUACCUAGGAACAUUCCUUGCAGACCCCGCAUUGCCCUUUGGGGGUGCCCUGGGAUCCCUGGGGUAGUCCAGCUCUUCUUCAUUUCCCAGCGUGGCCCUGGUUGGAAGAAGCAGCUGUCACAGCUGCUGUAGACAGCUGUGUUCCUACAAUUGGCCCAGCACCCUGGGGCACGGGAGAAGGGUGGGGACCGUUGCUGUCACUACUCAGGCUGACUGGGGCCUGGUCAGAUUACGUAUGCCCUUGGUGGUUUAGAGAUAAUCCAAAAUCAGGGUUUGGUUUGGGGAAGAAAAUCCUCCCCCUUCCUCCCCCGCCCCGUUCCCUACCGCCUCCACUCCUGCCAGCUCAUUUCCUUCAAUUUCCUUUGACCUAUAGGCUAAAAAAGAAAGGCUCAUUCCAGCCACAGGGCAGCCUUCCCUGGGCCUUUGCUUCUCUAGCACAAUUAUGGGUUACUUCCUUUUUCUUAACAAAAAAGAAUGUUUGAUUUCCUCUGGGUGA [ERα 3'UTR probe B]	binds
GGGAGGAGCUCCCUGGCUCCCACACGGUUCAGAUAAUCCCUGCUGCAUUUUACCCUCAUCAUGCACCACUUUAGCCAAAUUCUGUCUCCUGCAUACACUCCGGCAUGCAUCCAACACCAAUGGCUUUCUAGAUGAGUGGCCAUUCAUUUGCUUGCUCAGUUCUUAGUGGCACAUCUUCUGUCUUCUGUUGGGAACAGCCAAAGGGAUUCCAAGGCUAAAUCUUUGUAACAGCUCUCUUUCCCCCUUGCUAUGUUACUAAGCGUGAGGAUUCCCGUAGCUCUUCACAGCUGAACUCAGUCUAUGGGUUGGGGCUCAGAUAACUCUGUGCAUUUAAGCUACUUGUAGAGACCCAGGCCUGGAGAGUAGACAUUUUGCCUCUGAUAAGCACUUUUUAAAUGGCUCUAAGAAUAAGCCACAGCAAAGAAUUUAAAGUGGCUCCUUUAAUUGGUGACUUGGAGAAAGCUAGGUCAAGGGUUUAUUAUAGCACCCUCUUGUAUUCCUAUGGCAAUGCAUCCUUUUAUGAAAGUGGUACACCUUAAAGCUUUUAUAUGACUGUAGCAGAGUAUCUGGUGAUUGUCAAUUCAUUCCCCCUAUAGGAAUACAAGGGGCACACAGGGAAGGCAGAUCCCCUAGUUGGCAAGACUAUUUUAACUUGAUACACUGCAGAUUCAGAUGUGCUGAAAGCUCUGCCUCUGGCUUUCCGGUCAUGGGUUCCAGUUAAUUCAUGCCUCCCAUGGACCUAUGGAGAGCAGCAAGUUGAUCUUAGUUAAGUCUCCCUAUAUGAGGGAUAAGUUCCUGAUUUUUGUUUUUAUUUUUGUGUUACAAAAGAAAGCCCUCCCUCCCUGAACUUGCAGUAAGGUCAGCUUCAGGACCUGUUCCAGU [ERα 3'UTR probe A]	binds
GGGAGCUCUAGCACAAUUAUGGGUUACUUCCUUUUUCUUAACAAAAAAGAAUGUUUGAUUUCCUCUGGGUGACCUUAUUGUCUGUAAUUGAAACCCUAUUGAGAGGUGAUGUCUGUGUUAGCCAAUGACCCAGGUGAGCUGCUCGGGCUUCUCUUGGUAUGUCUUGUUUGGAAAAGUGGAUUUCAUUCAUUUCUGAUUGUCCAGUUAAGUGAUCACCAAAGGACUGAGAAUCUGGGAGGGCAAAAAAAAAAAAAAAGUUUUUAUGUGCACUUAAAUUUGGGGACAAUUUUAUGUAUCUGUGUUAAGGAUAUGUUUAAGAACAUAAUUCUUUUGUUGCUGUUUGUUUAAGAAGCACCUUAGUUUGUUUAAGAAGCACCUUAUAUAGUAUAAUAUAUAUUUUUUUGAAAUUACAUUGCUUGUUUAUCAGACAAUUGAAUGUAGUAAUUCUGUUCUGGAUUUAAUUUGACUGGGUUAACAUGCAAAAACCAAGGAAAAAUAUUUAGUUUUUUUUUUUUUUUUUGUAUACUUUUCAAGCUACCUUGUCAUGUAUACAGUCAUUUAUGCCUAAAGCCUGGUG [ERα 3'UTR probe C]	no binding
GGGAGUGGGUACUGGGAGUGAUCACUAACACCAUAGUAAUGUCUAAUAUUCACAGGCAGAUCUGCUUGGGGAAGCUAGUUAUGUGAAAGGCAAAUAGAGUCAUACAGUAGCUCAAAAGGCAACCAUAAUUCUCUUUGGUGCAGGUCUUGGGAGCGUGAUCUAGAUUACACUGCACCAUUCCCAAGUUAAUCCCCUGAAAACUUACUCUCAACUGGAGCAAAUGAACUUUGGUCCCAAAUAUCCAUCUUUUCAGUAGCGUUAAUUAUGCUCUGUUUCCAACUGCAUUUCCUUUCCAAUUGAAUUAAAGUGUGGCCUCGUUUUUAGUCAUUUAAAAUUGUUUUCUAAGUAAUUGCUGCCUCUAUUAUGGCACUUCAAUUUUGCACUGUCUUUUGAGAUUCAAGAAAAAUUUCUAUUCUUUUUUUUGCAUCCAAUUGUGCCUGAACUUUUAAAAUAUGUAAAUGCUGCCAUGUUCCAAACCCAUCGUCAGUGUGUGUGUUUAGAGCUGUGCACCCUAGAAACAACAUAUUGUCCCAUGAGCAGGUGCCUGAGACACAGACCCCUUUGCAUUCACAGAGAGGUCAUUGGUUAUAGAGACUUGAAUUAAUAAGUGACAUUAUGCCAGUUUCUGUUCUCUCACAGGUGAUAAACAAUGCUUUUUGUGCACUACAUACUCUUCAGUGUAGAGCUCUUGUUUUAUGGGAAAAGGCUCAAAUGCCAAAUUGUGUUUGAUGGAUUAAUAUGCCCUUUUGCCGAUGCAUACUAUUACUGAUGUGACUCGGUUUUGUCGCAGCUUUGCUUUGUUUAAUGAAACACACUUGUAAACCUCUUUUGCACUUUGAAAAAGAAUCCAGCGGGAUGCUCGAGCACCUGUAAACAAUU [ERα 3'UTR probe E]	no binding
